PubChem BioAssay AID1259425, University of Nebraska Medical Center, 2018

Aim: 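Seek colon cancer weak points whose silencing resembles KSR1 loss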 (primary screen)
System: HCT116 human colon cancer cells
Reagents: siRNA pool against human genes, 50 nM siRNA
Read-out: 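After 50 nM siRNA pool, branched-DNA assay measures six marker transcripts per well, minus blank, normalised to the geometric mean of two housekeeping transcripts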
Scale: BNIP3L mRNA: higher = more BNIP3L transcript after knockdown
This is one part, drawn at random, of about 14,000 reagents. Not all columns of the deposit are shown. Not given: the time to read-out.

FGF4 (fibroblast growth factor 4): BNIP3L mRNA, set 1 = 0.109
VCY (variable charge Y-linked): BNIP3L mRNA, set 1 = 0.131
LARP1B (La ribonucleoprotein 1B): BNIP3L mRNA, set 1 = 0.0571
RYR1 (ryanodine receptor 1): BNIP3L mRNA, set 1 = 0.178
PRKN (parkin RBR E3 ubiquitin protein ligase): BNIP3L mRNA, set 1 = 0.119
EMC7 (ER membrane protein complex subunit 7): BNIP3L mRNA, set 1 = 0.0895
PCDHAC2 (protocadherin alpha subfamily C, 2): BNIP3L mRNA, set 1 = 0.108
RP2 (RP2 activator of ARL3 GTPase): BNIP3L mRNA, set 1 = 0.102
PCDHGC5 (protocadherin gamma subfamily C, 5): BNIP3L mRNA, set 1 = 0.155
USP9X (ubiquitin specific peptidase 9 X-linked): BNIP3L mRNA, set 1 = 0.0588
LYZ (lysozyme): BNIP3L mRNA, set 1 = 0.125
STK38L (serine/threonine kinase 38 like): BNIP3L mRNA, set 1 = 0.125
PAK6 (p21 (RAC1) activated kinase 6): BNIP3L mRNA, set 1 = 0.116
SERAC1 (serine active site containing 1): BNIP3L mRNA, set 1 = 0.155
CCDC87 (coiled-coil domain containing 87): BNIP3L mRNA, set 1 = 0.0791
MORF4 (mortality factor 4 (pseudogene)): BNIP3L mRNA, set 1 = 0.218
GPN2 (GPN-loop GTPase 2): BNIP3L mRNA, set 1 = 0.186
ANO3 (anoctamin 3): BNIP3L mRNA, set 1 = 0.0777

The list goes on; the last 3 above are carried over.
MORF4 (mortality factor 4 (pseudogene)): BNIP3L mRNA, set 1 = 0.218
GPN2 (GPN-loop GTPase 2): BNIP3L mRNA, set 1 = 0.186
ANO3 (anoctamin 3): BNIP3L mRNA, set 1 = 0.0777
IMPDH2 (inosine monophosphate dehydrogenase 2): BNIP3L mRNA, set 1 = 0.0813
CISH (cytokine inducible SH2 containing protein): BNIP3L mRNA, set 1 = 0.114
ZBTB3 (zinc finger and BTB domain containing 3): BNIP3L mRNA, set 1 = 0.139
ABCB5 (ATP binding cassette subfamily B member 5): BNIP3L mRNA, set 1 = 0.138
COMMD9 (COMM domain containing 9): BNIP3L mRNA, set 1 = 0.0628
FAM230C (family with sequence similarity 230 member C): BNIP3L mRNA, set 1 = 0.0819
OR1E1 (olfactory receptor family 1 subfamily E member 1): BNIP3L mRNA, set 1 = 0.224
KIFC2 (kinesin family member C2): BNIP3L mRNA, set 1 = 0.279
FHIP1B (FHF complex subunit HOOK interacting protein 1B): BNIP3L mRNA, set 1 = 0.267
MZF1 (myeloid zinc finger 1): BNIP3L mRNA, set 1 = 0.107
